Assay [1] concerns the target His6-tagged CspA of B. mayonii MN14-1420 (CspA-like protein Bmayo_04535) (Borrelia mayonii MN14-1420). The assay can be described thus: far-Western, overlay or dot blot; purified CspA of B. mayonii MN14-1420 separated by 10% Tris/tricine SDS-PAGE, on nitrocellulose strips, incubated with FH constructs of different CCP domains; polyclonal anti-FH antibody; both purified.

Protein sequences, listed by entry. Tags and fused reporters are not part of them. Lines headed by an entry give the natural chain unless they say otherwise; changes in a name come on top. Chains listed by the source or under a name are the forms on record and can include a tag or linker. Residues count along the entry.
UniProt P02748, residues 22-559: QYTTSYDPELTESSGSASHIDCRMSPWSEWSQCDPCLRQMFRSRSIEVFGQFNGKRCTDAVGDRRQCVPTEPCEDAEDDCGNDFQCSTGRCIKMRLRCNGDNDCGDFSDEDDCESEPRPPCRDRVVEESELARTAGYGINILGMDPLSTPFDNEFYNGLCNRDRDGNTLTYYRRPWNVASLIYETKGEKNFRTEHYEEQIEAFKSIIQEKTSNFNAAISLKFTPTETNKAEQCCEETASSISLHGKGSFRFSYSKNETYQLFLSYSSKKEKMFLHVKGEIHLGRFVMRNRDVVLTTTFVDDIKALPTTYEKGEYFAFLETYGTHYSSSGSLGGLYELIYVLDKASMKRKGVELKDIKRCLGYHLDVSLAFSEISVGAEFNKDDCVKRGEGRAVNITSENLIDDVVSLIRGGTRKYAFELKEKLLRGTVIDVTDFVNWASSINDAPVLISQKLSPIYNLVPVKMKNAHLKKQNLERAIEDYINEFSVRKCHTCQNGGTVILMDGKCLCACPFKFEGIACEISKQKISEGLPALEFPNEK
complement regulator factor H (FH) (P08603, residues 19-1231): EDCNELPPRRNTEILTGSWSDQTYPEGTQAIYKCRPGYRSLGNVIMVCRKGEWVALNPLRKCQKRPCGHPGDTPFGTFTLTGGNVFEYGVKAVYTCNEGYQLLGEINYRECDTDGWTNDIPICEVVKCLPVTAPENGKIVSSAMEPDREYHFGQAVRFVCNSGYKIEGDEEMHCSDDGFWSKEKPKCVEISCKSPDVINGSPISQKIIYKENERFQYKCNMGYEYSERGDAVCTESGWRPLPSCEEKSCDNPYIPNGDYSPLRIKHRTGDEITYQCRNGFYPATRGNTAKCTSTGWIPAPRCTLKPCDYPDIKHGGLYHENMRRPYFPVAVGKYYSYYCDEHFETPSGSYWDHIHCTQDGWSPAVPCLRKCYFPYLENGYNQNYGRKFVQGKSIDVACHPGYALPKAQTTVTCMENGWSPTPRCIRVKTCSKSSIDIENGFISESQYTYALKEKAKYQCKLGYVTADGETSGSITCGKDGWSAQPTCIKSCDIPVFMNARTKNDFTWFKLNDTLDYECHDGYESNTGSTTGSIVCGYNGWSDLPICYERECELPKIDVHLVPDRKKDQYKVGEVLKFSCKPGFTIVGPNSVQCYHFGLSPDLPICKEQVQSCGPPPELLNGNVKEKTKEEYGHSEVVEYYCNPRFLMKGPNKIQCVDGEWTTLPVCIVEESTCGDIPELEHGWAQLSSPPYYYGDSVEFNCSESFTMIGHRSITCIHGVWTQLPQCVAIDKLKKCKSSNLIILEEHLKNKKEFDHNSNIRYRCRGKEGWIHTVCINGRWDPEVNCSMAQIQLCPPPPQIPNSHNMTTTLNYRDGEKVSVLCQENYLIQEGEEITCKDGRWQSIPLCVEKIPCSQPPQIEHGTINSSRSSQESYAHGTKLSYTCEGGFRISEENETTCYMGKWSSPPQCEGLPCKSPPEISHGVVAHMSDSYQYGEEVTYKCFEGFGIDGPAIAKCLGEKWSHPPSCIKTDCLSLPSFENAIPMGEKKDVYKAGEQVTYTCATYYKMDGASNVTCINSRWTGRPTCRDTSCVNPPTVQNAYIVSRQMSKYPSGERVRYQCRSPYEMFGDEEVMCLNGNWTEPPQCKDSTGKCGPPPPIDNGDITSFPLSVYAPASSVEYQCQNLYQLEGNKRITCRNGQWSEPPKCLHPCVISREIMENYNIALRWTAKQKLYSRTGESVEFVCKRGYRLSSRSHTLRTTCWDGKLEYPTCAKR
FH-like protein 1 (FHL-1) (P08603-2, form named): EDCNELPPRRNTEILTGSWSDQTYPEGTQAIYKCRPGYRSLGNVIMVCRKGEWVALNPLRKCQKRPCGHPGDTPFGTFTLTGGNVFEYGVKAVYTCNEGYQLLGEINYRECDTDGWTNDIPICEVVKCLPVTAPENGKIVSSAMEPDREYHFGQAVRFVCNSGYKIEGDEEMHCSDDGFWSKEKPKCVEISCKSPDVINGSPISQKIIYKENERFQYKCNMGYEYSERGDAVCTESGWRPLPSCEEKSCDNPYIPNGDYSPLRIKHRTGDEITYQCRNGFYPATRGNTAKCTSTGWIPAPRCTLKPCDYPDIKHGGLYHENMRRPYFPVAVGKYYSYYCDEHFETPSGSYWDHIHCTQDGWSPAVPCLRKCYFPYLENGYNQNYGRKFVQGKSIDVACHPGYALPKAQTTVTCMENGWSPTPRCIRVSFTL

Assay [2] shares this target. The assay can be described thus: ELISA; His6-tagged proteins (5 μg/ml) coated on MaxiSorp plates in PBS at 4°C; FH or FHL-1 (5 μg/ml) added for 1 h at RT; detected with goat anti-FH antiserum; both purified. A general note: In an ELISA, binding on a coated surface is turned into a signal by an enzyme label.
Assay [3] addresses complement component C9 (UniProt P02748). The assay can be described thus: C9 polymerisation assay (SDS-PAGE, silver staining); C9 (3 μg) incubated with 0.25–10 μg of recombinant protein or BSA, then 50 μM ZnCl2 to induce auto-polymerisation; monomeric and SDS-resistant polymeric C9 on Tris/Tricine SDS gels; both purified.
The target of assay [4] is CspA of B. mayonii MN14-1420 produced by B. garinii G1 (transformant G1/pCspA_Bmayo) (Borrelia mayonii MN14-1420). The assay can be described thus: ELISA; spirochetes (2 × 10^7 cells in 100 μl PBS) immobilised on MaxiSorp plates at 4°C overnight; purified FH; anti-FH antiserum; only the binder purified.
Assay [5] shares this target. Nature of the assay: far-Western, overlay or dot blot; borrelial cell lysates separated by 10% Tris/tricine SDS-PAGE, on nitrocellulose, incubated with NHS as source of FH; anti-FH antiserum.
Assay [6] shares this target. Nature of the assay: serum adsorption assay; viable spirochetes (2 × 10^9) in 750 μl NHS-EDTA for 1 h at RT; washed; bound proteins eluted with 0.1 M glycine-HCl pH 2.0; Western blot with anti-FH.
In assay [7] the target is His6-tagged CspA of B. mayonii MN14-1420 (CspA-like protein Bmayo_04535) (Borrelia mayonii MN14-1420). The assay can be described thus: pull-down; His6-tagged protein (40 μg) on magnetic beads (Dynabeads) incubated with 500 μl NHS-EDTA for 1 h on ice; elution with 100 mM glycine-HCl pH 2.0; silver staining and Western blot with anti-FH; only the target purified. (In general: A western blot detects proteins with antibodies after separation by electrophoresis.)

These are yes or no findings as the source states them, for the method shown. A result given as binding can be weak or reduced; the word gives no strength. For some assays here: Binding seen in cells or lysates may run through a third protein.

As to “FH construct FH1-5 (from UniProt P08603) (domain or fragment)”, the binding entry in assay [1] is reported as “binds”.

On to “FH construct FH1-6 (from UniProt P08603) (domain or fragment)”, for which, in assay [1], the binding result is reported as “binds”.

Regarding “FH construct FH8-20 (from UniProt P08603) (domain or fragment)”, in assay [1], the binding entry is on record as “binds weakly”.

For the substance “FH construct FH15-19 (from UniProt P08603) (domain or fragment)”, the binding result in assay [1] is given as “binds weakly”.

“FH construct FH15-20 (from UniProt P08603) (domain or fragment)”: the binding entry in assay [1] was “binds”.

As for “FH construct FH19-20 (from UniProt P08603) (domain or fragment)”, the binding result in assay [1] was “binds weakly”.

Turning to “FH-like protein 1 (FHL-1) (from UniProt P08603-2 19-449)”, the binding entry in assay [1] and in assay [2] was “binds” each time.

Regarding “His6-tagged CspA of B. mayonii MN14-1420 (CspA-like protein Bmayo_04535) (from UniProt A0AAC9KV93)”, the binding entry in assay [3] is “binds”.

Consider “complement regulator factor H (FH) (from UniProt P08603 19-1231)”, for which the binding entry in assay [4], in assay [5], in assay [6], in assay [2] and in assay [7] was “binds” throughout.

The values above are taken from paper PMC6902028, “Elucidating the Immune Evasion Mechanisms of Borrelia mayonii, the Causative Agent of Lyme Disease” (Frontiers in Immunology, 2019).
